Test results as given in patent US20100092464A1.
No constants are given. Whether binding was seen depends on the method and setting. Some results given as binding are weak or reduced against the parent protein; the word gives no strength.

Sequences of proteins named here, by UniProt entry; tags and fusion partners are left off. A change or cut given only in a name is not applied to a line headed by its entry.
UniProt P09603: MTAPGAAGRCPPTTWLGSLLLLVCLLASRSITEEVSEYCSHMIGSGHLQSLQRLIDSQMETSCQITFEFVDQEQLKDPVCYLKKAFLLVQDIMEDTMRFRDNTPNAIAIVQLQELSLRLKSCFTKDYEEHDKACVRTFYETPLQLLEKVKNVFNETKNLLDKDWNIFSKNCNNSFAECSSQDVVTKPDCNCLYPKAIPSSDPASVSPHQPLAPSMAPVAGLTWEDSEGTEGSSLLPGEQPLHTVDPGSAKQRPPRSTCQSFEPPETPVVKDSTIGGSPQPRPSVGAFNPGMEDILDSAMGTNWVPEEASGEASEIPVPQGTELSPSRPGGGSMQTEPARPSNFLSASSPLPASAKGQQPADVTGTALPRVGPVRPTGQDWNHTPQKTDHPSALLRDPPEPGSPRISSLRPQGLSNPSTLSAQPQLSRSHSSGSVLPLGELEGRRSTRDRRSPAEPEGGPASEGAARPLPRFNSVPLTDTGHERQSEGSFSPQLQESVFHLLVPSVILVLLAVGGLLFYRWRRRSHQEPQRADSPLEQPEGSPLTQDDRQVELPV

Experiments:
[1] = molecular target: human macrophage colony stimulating factor (M-CSF) (human) (UniProt P09603); assay: hybridoma screening by ELISA on human M-CSF
[2] = molecular target: human macrophage colony stimulating factor (M-CSF) (human) (UniProt P09603); assay: SPR (Biacore): M-CSF amine-coupled to CM5 chip, antibody flowed over

| Binder | binding [1] | binding [2] |
| --- | --- | --- |
| M-CSF-specific murine monoclonal antibody MC1 (antibody, mouse IgG2a, kappa, V domains shown) VH: EVKLVESGGGLVQPGGSLKLSCATSGFTFSDYYMYWVRQTPEKRLEWVAYISNGGGSTYYPDTVKGRFTISRDNAKNTLYLQMSRLKSEDTAMYYCARQGSYGYPFAYWGQGTLVTVSA VL: AIQMTQTTSSLSASLGDRVTISCSASQGISNYLNWYQQKPDGTVKLLIYYTSSLHSGVPSRFSGSGSGTDYSLTISNLEPEDIATYYCQQYSKLPWTFGGGTKLEIKR | binds |  |
| Human Engineered RX1 antibody heRX1-1.G1 (antibody, V domains shown) VH: DVQLQESGPGLVKPSQTLSLTCTVTDYSITSDYAWNWIRQFPGKKLEWMGYISYSGSTSYNPSLKSRITISRDTSKNQFSLQLNSVTAADTATYYCASFDYAHAMDYWGQGTTVTVSS VL: EIVLTQSPGTLSVSPGERVTFSCRASQSIGTSIHWYQQKTGQSPRLLIKYASERISGIPDRFSGSGSGTDFTLTISRVESEDFADYYCQQINSWPTTFGQGTKLEIKR |  | binds |
| Human Engineered RX1 antibody heRX1-1.G4 (antibody, V domains shown) VH: DVQLQESGPGLVKPSQTLSLTCTVTDYSITSDYAWNWIRQFPGKKLEWMGYISYSGSTSYNPSLKSRITISRDTSKNQFSLQLNSVTAADTATYYCASFDYAHAMDYWGQGTTVTVSS VL: EIVLTQSPGTLSVSPGERVTFSCRASQSIGTSIHWYQQKTGQSPRLLIKYASERISGIPDRFSGSGSGTDFTLTISRVESEDFADYYCQQINSWPTTFGQGTKLEIKR |  | binds |
